Data from paper PMC11267547, “Advancing drug discovery through assay development: a survey of tool compounds within the human solute carrier superfamily” (Frontiers in Pharmacology, 2024).

System: all proteins (SLCs and non-SLCs)
Test: Selectivity entropy score against all proteins (S_other)
Set-up: species or system human
[1] = selectivity entropy score against all proteins, from database activities
[2] = selectivity entropy score from database activities

Row | Structure (SMILES) | S_other [1] | S_other [2]
1 | Cc1c(NC(=O)c2cc(C(N)=O)nc3cc(F)ccc23)c(C(F)(F)F)nn1Cc1ccc(C#N)cc1 [BAY-876] | 0.17 | 
2 | CN1C2CCC1CC(OC(c1ccccc1)c1ccccc1)C2 (stereo not drawn) [Benzotropine] | 0 | 
3 | CCNC(=O)/C=C/c1cccc(Br)c1 [Cinromide] | 0 | 
4 | COCCOc1cc(CC2CCN(CCc3ccc4c(c3)C(=O)CCO4)CC2)ccc1Br [DSP-1053] | 0.56 | 
5 | CNCCCN1c2ccccc2CCc2ccccc21 [Desipramine] | 0.2 | 0.2
6 | CC(C)[C@H]1CN[C@H](C(=O)O)[C@H]1CC(=O)O [Dihydrokainate] | 0 | 
7 | N#Cc1ccc(Nc2cnccc2SCc2ccccc2C(=O)O)c2ccccc12 [KPH2f] | 0.21 | 0.21
8 | CCOC(=O)N1CCC(=C2c3ccc(Cl)cc3CCc3cccnc32)CC1 [Loratadine] | 1.57 | 
9 | Nc1nc2ccc(OC(F)(F)F)cc2s1 [Riluzole] | 1.45 | 
10 | N[C@H](C(=O)O)[C@H](OCc1cccc(NC(=O)c2ccc(C(F)(F)F)cc2)c1)C(=O)O [TFB-TBOA] | 0.82 | 
11 | NC(C(=O)O)C(OCc1ccccc1)C(=O)O (stereo not drawn) [Threo-beta-benzyloxyaspartic acid, Threo-beta-Benzyloxyaspartic acid] | 0.97 | 
12 | Cc1ccsc1C(=CCCN1CCC[C@@H](C(=O)O)C1)c1sccc1C [Tiagabine] | 0 | 
13 | COc1ccc(C2C(C#N)=C(N)OC3=C2C(=O)CC(c2cccc4ccccc24)C3)cc1 (stereo not drawn) [UCPH-101] | 0 | 
14 | CC1C(C#N)=C(N)OC2=C1C(=O)CC(c1cccc3ccccc13)C2 (stereo not drawn) [UCPH-102] | 0 | 
15 | Fc1ccc(C(OCCN2CCN(CCCc3ccccc3)CC2)c2ccc(F)cc2)cc1 [Vanoxerine (GBR12909), Vanoxerine] | 0.72 | 
16 | N[C@@H](CC(=O)Nc1ccc(Oc2cc(F)c(F)cc2Br)cc1)C(=O)O [WAY-213613] | 0.44 | 
